One molecule from paper PMC11700651 can be followed below.

This assay has as its target Flag-METTL3 (methyltransferase-like 3) (human), Q86U44. The assay can be described thus: affinity purification with mass spectrometry; pFlag-METTL3-transfected RD cells infected with EV71; IP with anti-Flag antibody; MS analysis. The conditions noted are these: remark: other sources report otherwise.

Results are given in words; binding and its absence hold for the method and conditions named. In cells and extracts the contact can be indirect. Here binding means that the protein was enriched with, or labelled near, the bait; the list need not be complete.

B1: DEAD-box helicase 3X (DDX3X), endogenous, O00571 1-662 (protein)
chain: MSHVAVENALGLDQQFAGLDLNSSDNQSGGSTASKGRYIPPHLRNREATKGFYDKDSSGWSSSKDKDAYSSFGSRSDSRGKSSFFSDRGSGSRGRFDDRGRSDYDGIGSRGDRSGFGKFERGGNSRWCDKSDEDDWSKPLPPSERLEQELFSGGNTGINFEKYDDIPVEATGNNCPPHIESFSDVEMGEIIMGNIELTRYTRPTPVQKHAIPIIKEKRDLMACAQTGSGKTAAFLLPILSQIYSDGPGEALRAMKENGRYGRRKQYPISLVLAPTRELAVQIYEEARKFSYRSRVRPCVVYGGADIGQQIRDLERGCHLLVATPGRLVDMMERGKIGLDFCKYLVLDEADRMLDMGFEPQIRRIVEQDTMPPKGVRHTMMFSATFPKEIQMLARDFLDEYIFLAVGRVGSTSENITQKVVWVEESDKRSFLLDLLNATGKDSLTLVFVETKKGADSLEDFLYHEGYACTSIHGDRSQRDREEALHQFRSGKSPILVATAVAARGLDISNVKHVINFDLPSDIEEYVHRIGRTGRVGNLGLATSFFNERNINITKDLLDLLVEAKQEVPSWLENMAYEHHYKGSSRGRSKSSRFSGGFGARDYRQSSGASSSSFSSSRASSSRSGGGGHGSSRGFGGGGYGGFYNSDGYGGNYNSQGVDWWGN
B1: the binding result is on record as “binds”.
